Literature values as cited in US8658648B2, “Modified chloroquines with single ring moiety or fused ring moiety” (DesignMedix, Inc., priority 2008, dated 2014).
At least one structure is not confirmed: it was looked up by name or label, or the drawing left a doubt.

Columns and labels:
Conditions in all cases: cited from earlier work
[1] = tested on: P. falciparum strain D6
[2] = tested on: P. falciparum strain FCR3
[3] = tested on: P. falciparum strain W2
[4] = tested on: P. falciparum strain Dd2
Note: key: S = sensitive; R = resistant; S/R = intermediate level of resistance.

## CCc1nc(N)nc(N)c1-c1ccc(Cl)cc1 [Pyrimethamine]
[1]
  Drug susceptibility of P. falciparum strain D6: S
[2]
  Drug susceptibility of P. falciparum strain FCR3: S
[3]
  Drug susceptibility of P. falciparum strain W2: R
[4]
  Drug susceptibility of P. falciparum strain Dd2: R
